Measured values as given in patent US8859555B2, “Lysine Specific Demethylase-1 inhibitors and their use” (Oryzon Genomics S.A., priority 2009, dated 2014).
Some of these results come from one statement about several compounds together.

Target: T1, Human recombinant LSD1 protein (Homo sapiens, UniProt O60341)
T1 construct: purchased BPS Bioscience Inc
Test: LSD1 inhibition, Amplex Red peroxide/peroxidase-coupled demethylase assay
Format: biochemical
Settings: selectivity LSD1 versus MAO-A and MAO-B

Row | SMILES | Ki value for LSD1 lower than Ki values for MAO-A and MAO-B
1 | CN1CCN(CCN[C@@H]2C[C@H]2c2ccccc2)CC1.Cl.Cl (relative stereo) [Example 1, N-[2-(4-methylpiperazin-1-yl)ethyl]-N-[(trans)-2-phenylcyclopropyl]amine dihydrochloride salt] | at least 10 fold
2 | Cl.Cl.c1ccc([C@@H]2C[C@H]2NCCNC2CC2)cc1 (relative stereo) [Example 2, N-cyclopropyl-N′-[(trans)-2-phenylcyclopropyl]ethane-1,2-diamine dihydrochloride salt] | at least 10 fold
